Laboratory results reported in patent publication US20110293518A1 (GE HEALTHCARE LIMITED, priority 2005, published 2011).
Some of these results come from one statement about several compounds together. For at least one compound, name, drawing or mass did not settle the structure.

Assay: PET with DDE (and GLD) in patients with whiplash associated disorder (WAD)
Format: in vivo, human
Conditions: for differences in uptake between both sides of the cervical vertebrae: other two patients with lower uptake; for uptake at the level of insertion in the clavicula: some of the four patients
Text: Clinically, those patients with a higher uptake of DDE in the affected joint areas seem to report high pain ratings while being in the scanner.
In a similar experiment, sixteen patients were investigated using a high resolution PET scanner.
In the […] experiments, local uptake was present in all cases in the parotis and submandibularis glandulae. Differences between patients were found in areas related to the insertion of muscles to the occipital bone, vertebrae and clavicula.

Row | Compound | differences in uptake between both sides of the cervical vertebrae | uptake at the level of insertion in the clavicula
1 | [11CH3]Oc1ccc(-n2nnnc2C(F)(F)F)cc1CN[C@H]1CCCN[C@H]1c1ccccc1 [GLD, [^11C]-GR205171] | 16-30% | 70-120%
2 | C#CCN([11CH3])[C@@H](C)Cc1ccccc1 [DDE, D-[methyl-^11C]-deprenyl] | 16-30% | 70-120%
